PubChem BioAssay AID504774 | Drosophila RNAi Screening Center – 2011

- Purpose: 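Fly genes whose loss alters survival after alkylation damage to DNA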 (primary screen)
- Cells: Drosophila Kc167 cells
- Knock-down reagent: long dsRNA against Drosophila genes, about 0.25 µg dsRNA per well
- Time to read-out: about 6 days: 3 days knock-down, then 3 days with or without MMS
- Challenge: methyl methanesulphonate 0.004% (w/v) for 3 days after knock-down
- Measured: 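Viability in wells given MMS, read as ATP luminescence, normalised by quantiles plate by plate and averaged across replicates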
- Scale: mean viability with MMS and viability with MMS: higher = more surviving cells after MMS
The deposit covers about 23,000 reagents; this is an unselected part of those with a known target gene and a result. 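Values are quantile-normalised luminescence on an arbitrary scale; higher means more cells surviving MMS.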 Reagents against one gene are numbered here. Names joined by + are all predicted targets of the reagent. No sequences are given here.

no.	target	reagent	mean viability with MMS	viability with MMS, replicate 1	viability with MMS, replicate 2
1	CG1632	1	3.62e6	4.08e6	4.09e6
2	CG1632	2	3.52e6	4.21e6	3.80e6
3	Bet5 (Blocked early in transport 5)	1	3.79e6	4.14e6	4.41e6
4	CG31819	1	3.66e6	4.20e6	4.04e6
5	CG34426	1	3.48e6	4.00e6	3.90e6
6	CG42262 (retired record)	1	3.68e6	4.19e6	4.07e6
7	CG42262 (retired record)	2	3.73e6	4.20e6	4.21e6
8	CG2121	1	3.77e6	4.37e6	4.16e6
9	CG2121	2	3.58e6	4.02e6	4.08e6
10	CG3040	1	3.62e6	4.12e6	4.02e6
11	not (non-stop)	1	3.50e6	3.96e6	3.95e6
12	Ccp84Ad	1	3.49e6	4.08e6	3.79e6
13	Ccp84Ad	2	3.40e6	3.90e6	3.89e6
14	CG15563	1	3.42e6	3.92e6	3.78e6
15	IPIP (Inositol phosphatase interacting protein)	1	3.89e6	4.53e6	4.37e6
16	Ldsdh1 (Lipid droplet subset dehydrogenase 1)	1	3.62e6	4.01e6	4.21e6
17	CG9839	1	3.66e6	4.14e6	4.20e6
18	CG8539	1	3.60e6	4.06e6	4.10e6
19	CG8539	2	3.36e6	3.91e6	3.82e6
20	Polr1B (RNA polymerase I subunit B)	1	3.34e6	3.51e6	3.93e6
21	Glut3 (Glucose transporter type 3)	1	3.53e6	4.06e6	3.96e6
22	CG34012	1	3.42e6	3.83e6	3.94e6
23	odd (odd skipped)	1	2.69e6	3.23e6	3.20e6
24	odd (odd skipped)	2	3.51e6	3.99e6	4.01e6
25	Sox14 (Sox box protein 14)	1	3.48e6	3.98e6	3.89e6
26	ArfGAP3 (ADP-ribosylation factor GTPase activating protein 3)	1	3.66e6	4.08e6	4.19e6
27	CG42714	1	3.51e6	4.11e6	3.84e6
28	Mayo	1	3.45e6	3.89e6	3.88e6
29	CG18367	1	3.72e6	3.79e6	3.74e6
30	Cyp4e2 (Cytochrome P450 4e2)	1	3.58e6	4.13e6	3.99e6
31	CG14683	1	3.38e6	3.81e6	3.82e6
32	S1P (Site-1 protease)	1	3.80e6	4.22e6	4.26e6
33	Diap2 (Death-associated inhibitor of apoptosis 2)	1	3.64e6	4.10e6	4.15e6
34	CG3358	1	3.65e6	4.10e6	4.14e6
35	brwl (brickwall)	1	3.10e6	3.54e6	3.55e6
36	brwl (brickwall)	2	3.56e6	4.33e6	3.77e6
37	CG2993	1	3.54e6	3.95e6	4.10e6
38	CG2993	2	3.39e6	3.80e6	3.85e6
39	CG11438	1	3.45e6	3.90e6	3.89e6
40	Moca-cyp	1	3.55e6	4.00e6	4.07e6
41	CG1812	1	3.58e6	4.12e6	4.03e6
42	Kif3C (Kinesin family member 3C)	1	3.56e6	4.04e6	4.03e6
43	Kif3C (Kinesin family member 3C)	2	3.43e6	3.82e6	3.97e6
44	Sgs3 (Salivary gland secretion 3)	1	3.54e6	4.02e6	4.02e6
45	Nup205 (Nucleoporin 205kD)	1	3.18e6	3.57e6	3.58e6
46	CG7903	1	3.53e6	4.02e6	3.97e6
47	wge (winged eye)	1	3.55e6	4.02e6	4.04e6
48	wge (winged eye)	2	3.62e6	3.99e6	4.23e6
49	CG1603	1	3.08e6	2.82e6	2.97e6
50	CG8206	1	3.52e6	3.83e6	3.89e6
51	CCAP-R (Crustacean cardioactive peptide receptor)	1	3.58e6	4.04e6	4.06e6
52	CCAP-R (Crustacean cardioactive peptide receptor)	2	3.64e6	4.12e6	4.14e6
53	mtd (mustard)	1	3.73e6	4.18e6	4.28e6
54	mtd (mustard)	2	3.61e6	4.04e6	4.18e6
55	mtd (mustard)	3	3.53e6	3.97e6	4.04e6
56	Mul1 (Mitochondrial E3 ubiquitin protein ligase 1)	1	3.64e6	4.16e6	4.05e6
57	Wdr33 (WD repeat domain 33)	1	3.46e6	3.94e6	3.89e6
58	Hey (Hairy/E(spl)-related with YRPW motif)	1	2.80e6	3.57e6	3.57e6
59	Hey (Hairy/E(spl)-related with YRPW motif)	2	3.52e6	4.14e6	3.87e6
60	CG30414	1	3.47e6	3.87e6	3.99e6
61	CG14795	1	3.44e6	3.91e6	3.89e6
62	PH4alphaSG1 (prolyl-4-hydroxylase-alpha SG1)	1	3.48e6	3.95e6	3.90e6
63	CG5969	1	3.48e6	3.92e6	3.96e6
64	Pebp1 (Phosphatidylethanolamine-binding protein 1)	1	3.42e6	3.89e6	3.90e6
65	CG14710	1	3.62e6	4.11e6	4.15e6
66	Chi (Chip)	1	3.46e6	4.09e6	3.70e6
67	CG14882	1	3.54e6	4.04e6	3.99e6
68	CG30109 + CG30108	1	3.52e6	4.09e6	3.88e6
69	Pif1A + Pif1B	1	3.54e6	4.02e6	4.02e6
70	Pif1A + Pif1B	2	3.65e6	4.13e6	4.20e6
71	Pif1A + Pif1B	3	3.62e6	4.10e6	4.10e6
72	Syx5 (Syntaxin 5)	1	3.30e6	3.69e6	3.73e6
73	kon (kon-tiki)	1	3.48e6	3.82e6	4.06e6
74	CG6340	1	3.56e6	4.10e6	3.98e6
75	Rnf146 (Ring finger protein 146)	1	3.77e6	4.35e6	4.06e6
76	CG4783	1	2.07e6	4.17e6	4.23e6
77	MetRS (Methionyl-tRNA synthetase)	1	3.26e6	3.86e6	3.83e6
78	CanB (Calcineurin B)	1	3.53e6	3.83e6	4.20e6
79	Gr5a (Gustatory receptor 5a)	1	3.61e6	4.08e6	4.10e6
80	Lim1 (LIM homeobox 1)	1	3.73e6	4.07e6	4.47e6
81	Lim1 (LIM homeobox 1)	2	3.50e6	3.98e6	3.97e6
82	CG10177	1	3.42e6	3.88e6	3.84e6
83	S-Lap2 (Sperm-Leucylaminopeptidase 2)	1	3.74e6	4.25e6	4.20e6
84	CycK (Cyclin K)	1	3.09e6	3.80e6	2.86e6
85	CG44836	1	3.60e6	4.09e6	4.08e6
86	St3 (Sulfotransferase 3)	1	3.63e6	3.92e6	4.14e6
87	PolD2 (DNA polymerase delta subunit 2)	1	3.34e6	3.76e6	3.83e6
